The record followed here is PubChem BioAssay AID248 (DTP/NCI, 2004).

SMILES strings stand for the structures. The list does not hold the whole screen: it gathers tests that were run many times, whatever their T/C, doses with no T/C, and many T/C values between a quarter and a half above the control. Other doses and runs of a compound stand elsewhere. T/C: endpoint of the treated group in % of that of the vehicle group. Some doses have a count of surviving animals in place of a T/C: the source files T/C as zero there, which appears to mark a toxic dose or a test without result, not a measured value. Some doses without a T/C left all or most animals alive at the check, yet need not have been tolerated: the source hardly ever lists a survival T/C far under the control, and the zero likely stands for such cases as well. Counts of survivors are from the toxicity check (mostly the fifth day) where no day follows; animals may have died later. Schedules are NCI's codes, read here as Q, the interval in days (D) or hours (H), X, the number of doses.

The subject of this experiment is L1210 leukemia ip in BDF1 mice, survival T/C. Put plainly: NCI In Vivo Anticancer Drug Screen. Data for tumor model L1210 Leukemia (intraperitoneal) in B6D2F1 (BDF1) mice. Particulars: T/C endpoint: mean survival time, higher T/C = longer survival.

Turning to `Nc1nc(NCCCc2ccccc2)c([N+](=O)[O-])c(=O)[nH]1`, the survivor count (dose: 400.0 mg/kg/injection, schedule: Q01DX009 (ip), vehicle: saline with Tween-80) is given as 6 of 6.
`CCCCCCCCCC(=O)N(C(C)C)C(C)C`: where the note is “dose: 400.0 mg/kg/injection, schedule: Q01DX009 (ip), vehicle: carboxymethylcellulose (CMC)”, the survivor count is 3 of 3.
As to `O=S(=O)(O)C(O)CC(c1ccccc1)S(=O)(=O)O` (stereo not drawn), the survivor count (dose: 200.0 mg/kg/injection, schedule: Q04DX002 (ip), vehicle: Klucel (hydroxypropylcellulose) (HPC)) was 3 of 3.
